These are yes or no findings as the source states them, for the method shown. For part of these data: Binding calls can cover weak binding; strength is not graded here. Tags and fused reporters may be left off the sequences shown.

Drawing on PMC4694719, this text covers binding for five molecules.

Common to all, as to test: two-hybrid; LexA-based yeast two-hybrid system (BD Clontech), LexA-CSU2 fusions and B42AD-COP1 fusions co-transformed into yeast strain EGY48, β-galactosidase activity
For assay [1], the target named is T1, COP1 SUPPRESSOR 2 (CSU2), full length, LexA fusion (Arabidopsis thaliana) (UniProt F4HVZ5).
T1 sequence: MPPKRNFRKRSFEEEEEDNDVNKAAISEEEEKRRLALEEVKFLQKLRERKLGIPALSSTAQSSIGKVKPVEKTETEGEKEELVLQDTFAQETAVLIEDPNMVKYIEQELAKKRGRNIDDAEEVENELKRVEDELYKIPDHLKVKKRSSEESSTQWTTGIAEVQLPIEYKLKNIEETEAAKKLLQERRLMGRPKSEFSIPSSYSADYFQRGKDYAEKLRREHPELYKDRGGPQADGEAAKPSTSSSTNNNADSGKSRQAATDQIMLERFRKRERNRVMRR

Assay [2] has as its target CSU2 lacking the coiled-coil domain, LexA fusion (Arabidopsis thaliana).
For assay [3], the target named is CSU2 coiled-coil domain, LexA fusion (Arabidopsis thaliana).

On to “COP1 Ring, B42 activation domain fusion (Arabidopsis thaliana) (domain or fragment)”, for which the binding result in assay [1] is “no binding”.
Consider “COP1 WD40, B42 activation domain fusion (Arabidopsis thaliana) (domain or fragment)”, for which the binding result in assay [1] is “no binding”.
Same read-out and setting: with “COP1 coil, B42 activation domain fusion (Arabidopsis thaliana) (domain or fragment)” the entry was “binds”; with “COP1 ΔRing, B42 activation domain fusion (Arabidopsis thaliana) (domain or fragment)”, “binds”.

B1: COP1 N282, B42 activation domain fusion (domain or fragment, UniProt P43254 1-282)
chain: MEEISTDPVVPAVKPDPRTSSVGEGANRHENDDGGSGGSEIGAPDLDKDLLCPICMQIIKDAFLTACGHSFCYMCIITHLRNKSDCPCCSQHLTNNQLYPNFLLDKLLKKTSARHVSKTASPLDQFREALQRGCDVSIKEVDNLLTLLAERKRKMEQEEAERNMQILLDFLHCLRKQKVDELNEVQTDLQYIKEDINAVERHRIDLYRARDRYSVKLRMLGDDPSTRNAWPHEKNQIGFNSNSLSIRGGNFVGNYQNKKVEGKAQGSSHGLPKKDALSGSDS
As to B1, the binding entry in assay [2] is listed as “no binding”; in assay [3] it was “binds”.
